Among the data in paper PMC7468482 are binding values, retold here.

Chains of the proteins cited; added tags and fusions are not shown. Lines headed by an entry give the natural chain unless they say otherwise; changes in a name come on top.
UniProt Q9FIP9: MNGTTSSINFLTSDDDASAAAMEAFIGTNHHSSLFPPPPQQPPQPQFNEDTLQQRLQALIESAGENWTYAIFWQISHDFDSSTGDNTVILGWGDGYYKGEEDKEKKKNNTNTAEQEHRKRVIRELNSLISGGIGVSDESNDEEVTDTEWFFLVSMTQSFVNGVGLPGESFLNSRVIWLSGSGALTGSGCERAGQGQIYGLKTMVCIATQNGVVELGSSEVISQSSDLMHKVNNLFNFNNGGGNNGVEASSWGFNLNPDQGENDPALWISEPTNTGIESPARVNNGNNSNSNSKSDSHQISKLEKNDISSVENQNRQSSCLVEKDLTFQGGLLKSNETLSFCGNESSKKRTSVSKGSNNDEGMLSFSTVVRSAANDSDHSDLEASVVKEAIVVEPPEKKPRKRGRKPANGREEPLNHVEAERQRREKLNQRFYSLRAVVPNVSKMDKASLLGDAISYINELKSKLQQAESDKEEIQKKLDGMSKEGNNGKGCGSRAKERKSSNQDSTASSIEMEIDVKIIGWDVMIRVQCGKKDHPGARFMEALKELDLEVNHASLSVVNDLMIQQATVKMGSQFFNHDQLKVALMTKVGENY
UniProt Q7XA73: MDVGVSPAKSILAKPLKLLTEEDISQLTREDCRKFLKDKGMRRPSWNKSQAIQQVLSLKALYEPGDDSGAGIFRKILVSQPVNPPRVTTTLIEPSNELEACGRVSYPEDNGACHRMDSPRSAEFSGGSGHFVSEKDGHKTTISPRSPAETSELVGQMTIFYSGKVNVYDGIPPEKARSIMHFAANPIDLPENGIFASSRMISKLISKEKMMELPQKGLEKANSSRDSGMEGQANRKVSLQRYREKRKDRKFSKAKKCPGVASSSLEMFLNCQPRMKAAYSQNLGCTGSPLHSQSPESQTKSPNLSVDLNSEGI
UniProt Q8GY55: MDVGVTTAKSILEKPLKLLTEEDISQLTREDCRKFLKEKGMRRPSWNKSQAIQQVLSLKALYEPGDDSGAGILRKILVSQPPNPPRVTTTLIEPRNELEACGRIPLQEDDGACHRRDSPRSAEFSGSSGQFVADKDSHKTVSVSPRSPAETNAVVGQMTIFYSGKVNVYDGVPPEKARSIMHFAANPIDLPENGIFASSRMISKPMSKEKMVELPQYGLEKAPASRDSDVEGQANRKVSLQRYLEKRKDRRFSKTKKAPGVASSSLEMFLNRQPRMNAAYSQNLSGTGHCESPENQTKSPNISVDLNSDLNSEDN

In the assay the target is MYC3 transcription factor (Arabidopsis thaliana) (UniProt Q9FIP9). Nature of the assay: two-hybrid; GAL4 system, S. cerevisiae PJ69-4A co-transformed with bait and prey (pGAL424gate, pGBT9gate); 10- or 100-fold dilutions dropped on SD-Leu-Trp (control) and SD-Leu-Trp-His (selective); cultures grown at 30°C.

Results are given in words; binding and its absence hold for the method and conditions named. Some entries that bind do so weakly or less than the wild type.

Take “mutant PPD1 (Y242F and R243L) (from UniProt Q7XA73 1-313)”: the binding entry was “binds”.

With “mutant PPD2 (Y243F) (from UniProt Q8GY55 1-315)”, the binding entry is recorded as “binds”.
